Assay results: patent US20230287109A1
No constants are given. Whether binding was seen depends on the method and setting. Some entries that bind do so weakly or less than the wild type.

Amino acid sequences for entries named in this document (tags omitted). Residues count along the entry.
UniProt O15123, residues 19-496: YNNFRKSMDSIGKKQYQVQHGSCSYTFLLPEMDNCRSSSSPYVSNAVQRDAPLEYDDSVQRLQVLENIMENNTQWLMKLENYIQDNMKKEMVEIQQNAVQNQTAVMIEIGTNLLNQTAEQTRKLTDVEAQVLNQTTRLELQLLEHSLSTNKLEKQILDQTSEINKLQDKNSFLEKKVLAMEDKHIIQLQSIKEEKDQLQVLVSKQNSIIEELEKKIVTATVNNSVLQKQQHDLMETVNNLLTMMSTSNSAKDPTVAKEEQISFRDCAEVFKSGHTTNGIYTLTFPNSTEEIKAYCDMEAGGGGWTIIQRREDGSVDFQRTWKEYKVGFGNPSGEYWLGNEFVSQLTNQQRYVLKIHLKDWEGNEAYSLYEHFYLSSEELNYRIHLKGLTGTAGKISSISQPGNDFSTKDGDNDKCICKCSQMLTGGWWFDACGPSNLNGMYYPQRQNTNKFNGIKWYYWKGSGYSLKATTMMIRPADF
UniProt Q02763, residues 23-745: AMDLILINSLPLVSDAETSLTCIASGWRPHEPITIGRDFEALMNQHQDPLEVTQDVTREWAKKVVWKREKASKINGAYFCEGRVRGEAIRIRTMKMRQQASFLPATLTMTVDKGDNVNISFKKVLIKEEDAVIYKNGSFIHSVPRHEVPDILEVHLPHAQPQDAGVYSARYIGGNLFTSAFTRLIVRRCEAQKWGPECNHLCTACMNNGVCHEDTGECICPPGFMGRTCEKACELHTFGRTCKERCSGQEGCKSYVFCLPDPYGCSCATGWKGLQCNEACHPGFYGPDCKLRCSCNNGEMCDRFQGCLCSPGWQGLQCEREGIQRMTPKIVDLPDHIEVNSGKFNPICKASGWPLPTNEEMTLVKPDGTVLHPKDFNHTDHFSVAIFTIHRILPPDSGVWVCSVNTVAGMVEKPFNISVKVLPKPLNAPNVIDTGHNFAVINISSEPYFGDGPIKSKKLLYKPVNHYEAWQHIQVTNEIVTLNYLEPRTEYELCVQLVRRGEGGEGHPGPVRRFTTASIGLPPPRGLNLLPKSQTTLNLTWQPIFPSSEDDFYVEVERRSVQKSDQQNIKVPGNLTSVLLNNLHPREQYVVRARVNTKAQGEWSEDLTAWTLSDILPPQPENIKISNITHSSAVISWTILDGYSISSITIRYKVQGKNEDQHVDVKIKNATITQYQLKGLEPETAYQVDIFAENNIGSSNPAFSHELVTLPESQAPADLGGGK

Key:
[1] = biological target: Recombinant human full-length Ang2 (human) (UniProt O15123); experiment: SPR, Ang2 captured on CM5, human Tie2 injected
[2] = biological target: Recombinant human full-length Ang2 (human) (UniProt O15123); experiment: SPR (BIACORE 3000), Ang2 captured on CM5, dimeric Tie2 100 nM injected first
[3] = biological target: Recombinant human full-length Ang2 (human) (UniProt O15123); experiment: SPR, Ang2 on the chip (surface label 3-Ang2), first of three sequential injections

Measured: binding

human dimeric form of Tie2 (Example 8) (from UniProt Q02763 23-745) (receptor)
binds: all assays above
